Laboratory results taken from patent US20190275058A1, “COMPOSITIONS AND METHODS FOR TREATING ADDICTION OR SUBSTANCE USE DISORDERS” (EMBERA NEUROTHERAPEUTICS, INC., priority 2016, published 2019).
Some results were stated once for a whole list of compounds, not compound by compound.

Tested on: adult male Wistar rats
Experiment: Intravenous cocaine self-administration under a multiple, alternating schedule of food reinforcement and cocaine self-administration
Type: in vivo, rat
Conditions: high dose, drug alone (FIG. 1B)

For CC(C)(C(=O)c1cccnc1)c1cccnc1 [metyrapone], the “cocaine self-administration as percentage of baseline” value was “less than 50 % of baseline self-administration”.
